# Source: patent publication US20220049016A1
# Protein sequences, listed by entry. Tags and fused reporters are not part of them. Residues count along the entry.
# UniProt Q15046, residues 1-72: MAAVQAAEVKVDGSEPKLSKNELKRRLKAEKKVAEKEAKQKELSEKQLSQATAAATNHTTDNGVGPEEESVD
# Results are given in words; binding and its absence hold for the method and conditions named. Some results given as binding are weak or reduced against the parent protein; the word gives no strength.
# B1: N3-8 clone displayed on yeast (Fab, V domains shown)
# VH: EVQLLESGGGLVQPGGSLRLSCAASGFTFSSYDMSWVRQAPGKGLEWVSAISPYSGRIYYADSVKGRFTISRDNSKNTLYLQMNSLRAEDTAVYYCARMALDFDYWGQGTLVTVSS
# VL: QSVLTQPPSASGTPGQRVTISCTGSSSNIGSNYVTWYQQLPGTAPKLLIYDNSNRPSGVPDRFSGSKSGTSASLAISGLQSEDEADYYCSSFSDELGAYVFGGGTKLTVL
# Biological target: GST-conjugated KRS (1-72) peptide (human) (UniProt Q15046)
# Assay: flow cytometry of yeast-displayed clones with GST-KRS (1-72)
binder,measurement,value
B1,binding,binds
